From the supplement of paper PMC12067093, “Discovery and optimisation of a covalent ligand for TRIM25 and its application to targeted protein ubiquitination” (Chemical Science, 2025)
The other results are listed elsewhere or left out.

Compound: CC1Cc2ccccc2N1C(=O)C1CCCN(C1)C(=O)CCl (mixture of isomers) [TRIM25 ligand 11 (diastereomer mixture)]
Assay: probe-labelled cysteine peptide fold change vs DMSO (competition) (log2 fold change); higher = less target engagement (more negative = stronger competition)
Settings: THP-1, incubation time: 4 h
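Also: competitive chemoproteomic profiling in live THP-1 cells with an iodoacetamide desthiobiotin (IA-DTB) probe, comparing probe-labelled peptide intensities in compound-treated cells against DMSO-treated controls.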

Row | Target | probe-labelled cysteine peptide fold change (10 µM) | probe-labelled cysteine peptide fold change (50 µM)
1 | INPP5B_P32019_678_EFCFQNVK (UniProt P32019) | 0.151 | 0.141
2 | IGFBP2_P18065_227_TPCQQELDQVLER (UniProt P18065) | 0.118 | -0.0712
3 | HUWE1_Q7Z6Z7_4211_EYVHLVCQMR (UniProt Q7Z6Z7) | -0.0655 | 0.0277
4 | HUS1_O60921_253_ALCNIVNNK (UniProt O60921) | -0.137 | 0.058
5 | IFI35_P80217_74_IHCPLLAGSALITFDDPK (UniProt P80217) | -0.23 | -0.0169
6 | IGF2R_P11717_1957_CDEDEDIGRPQVFSEVR (UniProt P11717) | 0.0901 | 0.193
7 | IFT122_Q9HBG6_784_AIEICGDHGWVDMLIDIAR (UniProt Q9HBG6) | 0.194 | -0.133
8 | IDH3G_P51553_333_NIANPTATLLASCMMLDHLK (UniProt P51553) | – | -0.0538
9 | INF2_Q27J81_971_KGPGKQEEVCVIDALLADIR (UniProt Q27J81) | -0.103 | -0.196
10 | IDE_P14735_178_FAQFFLCPLFDESCK (UniProt P14735) | 0.0503 | -0.118
11 | IMPAD1_Q9NX62_302_KWDICAGNAILK (UniProt Q9NX62) | 0.0831 | 0.13
12 | IGBP1_P78318_118_EHFINYLTQCHCYHVAEFELPK (UniProt P78318) | 0.195 | 0.284
13 | IDH3G_P51553_236_LGDGLFLQCCR (UniProt P51553) | 0.0357 | 0.079
14 | IDUA_P35475_481_YLDNGLCSPDGEWR (UniProt P35475) | -0.0418 | -0.326
15 | IGF2R_P11717_149_TLGTPEFVTATECVHYFEWR (UniProt P11717) | -0.0703 | -0.305
16 | ILVBL_A1L0T0_315_AAVETLGVPCFLGGMAR (UniProt A1L0T0) | 0.000564 | -0.123
17 | IARS2_Q9NSE4_155_IHFVPGWDCHGLPIEIK (UniProt Q9NSE4) | 0.0601 | 0.143
18 | IDH2_P48735_154_EPIICK (UniProt P48735) | 0.0361 | 0.0504
19 | IGF2R_P11717_823_KYYINVCRPLNPVPGCNR (UniProt P11717) | -0.0433 | 0.000829
20 | IL17RA_Q96F46_632_EPGSQACLAIDPLVGEEGGAAVAK (UniProt Q96F46) | 0.193 | -0.0404
21 | IL18_Q14116_10_AAEPVEDNCINFVAMK (UniProt Q14116) | 0.318 | 0.296
22 | IDH3A_P50213_127_TFDLYANVRPCVSIEGYK (UniProt P50213) | 0.0495 | -0.141

Row | Target | probe-labelled cysteine peptide fold change (10 µM) | probe-labelled cysteine peptide fold change (50 µM)
23 | IGF2R_P11717_823_YYINVCRPLNPVPGCNR (UniProt P11717) | -0.0696 | -0.0213
24 | HYAL3_O43820_220_CHAATLAR (UniProt O43820) | -0.0987 | 0.0993
25 | IARS_P41252_120_MGITEYNNQCR (UniProt P41252) | 0.0787 | 0.106
26 | IFRD2_Q12894_409_AVLHSVEGGECEEEIVR (UniProt Q12894) | 0.202 | 0.0889
27 | ICAM3_P32942_190_DDHGAPFSCR (UniProt P32942) | -0.00802 | 0.0203
28 | IL1RAP_Q9NPH3_332_SYVCHAR (UniProt Q9NPH3) | 0.0484 | 0.0314
29 | HTT_P42858_202_CRPYLVNLLPCLTR (UniProt P42858) | -0.0475 | -0.0186
30 | IDE_P14735_414_AEGPQEWVFQECK (UniProt P14735) | 0.0212 | 0.0564
31 | IL17RA_Q96F46_185_NFLVPDCEHAR (UniProt Q96F46) | -0.00623 | 0.181
32 | HYAL3_O43820_356_AAMACSHQR (UniProt O43820) | 0.0324 | 0.152
33 | IDH2_P48735_402_VCVETVESGAMTK (UniProt P48735) | 0.0174 | 0.109
34 | IFT22_Q9H7X7_12_ILFVGPCESGK (UniProt Q9H7X7) | -0.0571 | -0.08
35 | ILF3_Q12906_295_VLECLASGIVMPDGSGIYDPCEK (UniProt Q12906) | 0.237 | -0.0431
36 | IGF2R_P11717_1942_LWCSTTADYDRDHEWGFCR (UniProt P11717) | -0.03 | 0.0902
37 | ILK_Q13418_239_DFNEECPR (UniProt Q13418) | -0.132 | -0.0478
38 | IDH3B_O43837_233_LGDGLFLQCCEEVAELYPK (UniProt O43837) | 0.314 | 0.514
39 | IFI16_Q16666_679_INQLCSQTK (UniProt Q16666) | -0.0511 | 0.00297
40 | HYOU1_Q9Y4L1_352_VEFEELCADLFER (UniProt Q9Y4L1) | 0.118 | -0.106
41 | IL4I1_Q96RQ9_252_AHSCLSDR (UniProt Q96RQ9) | 0.19 | 0.207
42 | INO80_Q9ULG1_13_DDGGCTELAK (UniProt Q9ULG1) | -0.0437 | -0.281
43 | IARS_P41252_87_FGWDCHGLPVEYEIDK (UniProt P41252) | 0.0356 | 0.0848
44 | HUS1_O60921_44_LNFILCDK (UniProt O60921) | 0.0505 | -0.124

Rewritten with tabs: entries from further up.
Row	Target	probe-labelled cysteine peptide fold change (10 µM)	probe-labelled cysteine peptide fold change (50 µM)
18	IDH2_P48735_154_EPIICK (UniProt P48735)	0.0361	0.0504
19	IGF2R_P11717_823_KYYINVCRPLNPVPGCNR (UniProt P11717)	-0.0433	0.000829
20	IL17RA_Q96F46_632_EPGSQACLAIDPLVGEEGGAAVAK (UniProt Q96F46)	0.193	-0.0404
21	IL18_Q14116_10_AAEPVEDNCINFVAMK (UniProt Q14116)	0.318	0.296

Next part

Row | Target | probe-labelled cysteine peptide fold change (10 µM) | probe-labelled cysteine peptide fold change (50 µM)
45 | IGF2R_P11717_2096_TASSVIELTCTK (UniProt P11717) | -0.0988 | 0.0405
46 | IARS2_Q9NSE4_414_GTGLVHTAPAHGMEDYGVASQHNLPMDCLVDEDGVFTDVAGPELQNK (UniProt Q9NSE4) | 0.112 | -0.523
47 | IMPA1_P29218_184_LFCIPVHGIR (UniProt P29218) | -0.0315 | 0.0538
48 | IKBKG_Q9Y6K9_131_CQQQMAEDK (UniProt Q9Y6K9) | -0.164 | -0.134
49 | IMPDH2_P12268_246_QLLCGAAIGTHEDDK (UniProt P12268) | 0.0786 | 0.0887
50 | IL6R_P08887_25_CPAQEVAR (UniProt P08887) | -0.0736 | -0.0328
51 | IGF2R_P11717_174_EVPCYVFDEELRK (UniProt P11717) | -0.048 | -0.0794
52 | IDH3A_P50213_331_IEAACFATIK (UniProt P50213) | 0.232 | 0.131
53 | IDNK_Q5T6J7_63_GIPLNDQDRIPWLCNLHDILLR (UniProt Q5T6J7) | -0.0642 | 0.0666
54 | IGHMBP2_P38935_395_CILAGDHK (UniProt P38935) | 0.0395 | 0.12
55 | IFIT2_P09913_140_IESPELDCEEGWTR (UniProt P09913) | -0.186 | -0.263
56 | IMPDH2_P12268_173_EEEHDCFLEEIMTK (UniProt P12268) | 0.174 | 0.0149
57 | IL17RA_Q96F46-2_303_HSATVSCPEMPDTPEPIPGPGSEK (UniProt Q96F46) | -0.0703 | 0.116
58 | ILVBL_A1L0T0_354_KADVIVLAGTVCDFR (UniProt A1L0T0) | -0.0406 | 0.133
59 | IGF2R_P11717_1476_FTCSESQVNSR (UniProt P11717) | 0.13 | 0.0844
60 | IDE_P14735_257_FHSAYYSSNLMAVCVLGR (UniProt P14735) | -0.353 | -0.375
61 | IARS2_Q9NSE4_211_WGIMADWNNCYYTFDGK (UniProt Q9NSE4) | 0.318 | 0.229
62 | HTT_P42858_777_GATAILCGTLICSILSR (UniProt P42858) | -0.112 | 0.306
63 | INF2_Q27J81_971_QEEVCVIDALLADIRK (UniProt Q27J81) | 0.0359 | -0.0427
64 | IDH2_P48735_113_CATITPDEARVEEFK (UniProt P48735) | -0.248 | -0.0456
65 | INO80_Q9ULG1_765_DVENELSDKIEILMYCQLTSR (UniProt Q9ULG1) | 0.0534 | 0.241
66 | IGF2R_P11717_475_EDLLCGATDGK (UniProt P11717) | 0.141 | 0.139

Retrieved one by one from the entries so far, 2 records:
Row | Target | probe-labelled cysteine peptide fold change (10 µM) | probe-labelled cysteine peptide fold change (50 µM)
64 | IDH2_P48735_113_CATITPDEARVEEFK (UniProt P48735) | -0.248 | -0.0456
50 | IL6R_P08887_25_CPAQEVAR (UniProt P08887) | -0.0736 | -0.0328

The list goes on:

Row | Target | probe-labelled cysteine peptide fold change (10 µM) | probe-labelled cysteine peptide fold change (50 µM)
67 | IMPDH2_P12268_173_DIDFLKEEEHDCFLEEIMTKR (UniProt P12268) | -0.465 | -0.3
68 | IDH3G_P51553_148_TSLDLYANVIHCK (UniProt P51553) | -0.0222 | 0.0812
69 | IARS_P41252_336_VCMDFNIIRK (UniProt P41252) | -0.269 | -0.115
70 | IGF2R_P11717_275+288_EEAGKLDFCDGHSPAVTITFVCPSER (UniProt P11717) | 0.00141 | -0.0605
71 | IBTK_Q9P2D0_615_DEDSAGCHLFVVEK (UniProt Q9P2D0) | 0.218 | 0.148
72 | HTT_P42858_664_FVLRDEATEPGDQENKPCR (UniProt P42858) | 0.0115 | -0.0955
73 | IARS_P41252_87_RFGWDCHGLPVEYEIDK (UniProt P41252) | -0.0612 | 0.00729
74 | IMPDH2_P12268_468_FVPYLIAGIQHSCQDIGAK (UniProt P12268) | -0.064 | -0.107
75 | IARS_P41252_526_ISEVFDCWFESGSMPYAQVHYPFENKR (UniProt P41252) | 0.0141 | -0.0337
76 | ILVBL_A1L0T0_354_ADVIVLAGTVCDFR (UniProt A1L0T0) | 0.187 | 0.139
77 | IL6R_P08887_277_DLQHHCVIHDAWSGLR (UniProt P08887) | -0.0505 | -0.079
78 | IL6R_P08887_121_AGRPAGTVHLLVDVPPEEPQLSCFR (UniProt P08887) | -0.172 | 0.19
79 | ICAM3_P32942_139_CQVEDGSPR (UniProt P32942) | -0.0448 | -0.112
80 | IFT27_Q9BW83_8_CILAGDPAVGK (UniProt Q9BW83) | -0.095 | -0.133
81 | IARS_P41252_400_LLVATTFTHSYPFCWR (UniProt P41252) | -0.0304 | 0.234
82 | IKBKB_O14920_716_KSEELVAEAHNLCTLLENAIQDTVR (UniProt O14920) | 0.164 | 0.121
83 | INF2_Q27J81_38_LGPQDSDPTEANLESADPELCIR (UniProt Q27J81) | -0.00116 | -0.0968
84 | ILF3_Q12906_203_CLAALASLR (UniProt Q12906) | -0.0668 | 0.0994
85 | IMPDH1_P20839_468_FVPYLIAGIQHGCQDIGAR (UniProt P20839) | -0.0383 | 0.188
